The results in this text go back to paper PMC7819943, “Rice protein-binding microarrays: a tool to detect cis-acting elements near promoter regions in rice”.

Amino acid sequences for entries named in this document (tags omitted).
UniProt Q0JBA9, entry or part of it: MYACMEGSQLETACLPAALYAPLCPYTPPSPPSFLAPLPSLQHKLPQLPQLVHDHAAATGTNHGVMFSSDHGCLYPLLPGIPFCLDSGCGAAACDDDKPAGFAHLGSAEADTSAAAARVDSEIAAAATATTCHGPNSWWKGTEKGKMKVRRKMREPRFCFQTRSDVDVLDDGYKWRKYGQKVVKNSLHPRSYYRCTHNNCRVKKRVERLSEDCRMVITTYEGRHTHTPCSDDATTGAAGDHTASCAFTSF

This is one part of the list.

This test deals with OsWRKY34 (Oryza sativa, UniProt Q0JBA9 1-250). The experiment in a line: protein-binding microarray (RPBM); PBS, 2% BSA, 51.3 ng/ul salmon testes DNA, 50 uM zinc acetate, 200 nM TF, 25 C, 1 h; high values mean tight binding. Particulars: protein: recombinant; tags: N-terminal polyhistidine and DsRed monomer fusion (pET32a); label: CyDye5-dUTP incorporated in the synthesized complementary strand; 3' TTTTT single-stranded linker to array surface; dsDNA, one strand shown. The essentials:
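The binding signal is fluorescence intensity per feature, in arbitrary units, read on an Axon 4000B scanner. Polyhistidine- and DsRed-tagged transcription factors (N-terminal fusions) from E. coli BL21-CodonPlus were purified on Ni–NTA and applied at 200 nM for 1 h at 25 °C to a double-stranded, BSA-blocked custom Agilent array in buffer with 50 µM zinc acetate.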
Take “GACCGGTGCACCCAGCCCACCACCTTCTCCCTGCACCCACCGGAGTCACCTAGTGCAG”: the binding signal was 8840 fluorescence intensity (a.u.).

With “GCCGCCGGGCACCACATTTGCAGCAGCGCCGCCTCCGCCGCGGAGTCACCTAGTGCAG”, the binding signal was 9970 fluorescence intensity (a.u.).

As to “CCTTCGTCGACCCTCCGCCGCCGCCGCCGCCGCCGCCGACCGGAGTCACCTAGTGCAG”, the binding signal is 8660 fluorescence intensity (a.u.).

Consider “AATTATGTGAAAGGGGTGGGTGCAAAACTATCACCTTGACCGGAGTCACCTAGTGCAG”, for which the binding signal was 9860 fluorescence intensity (a.u.).

In the case of “CCTTCCGACATCCGGTCAAACGTCTGATGTGACACCCAAACGGAGTCACCTAGTGCAG”, the binding signal is 10000 fluorescence intensity (a.u.).

As to “ATCTCTGTGATCGATCTGCAAGCCATGACGGACCCGCTGTCGGAGTCACCTAGTGCAG”, the binding signal is 8060 fluorescence intensity (a.u.).

Regarding “GTCATATTCTTCAGGGCACTCTATTGTTGGCTATCTTTCTCGGAGTCACCTAGTGCAG”, the binding signal was 8580 fluorescence intensity (a.u.).

In the case of “CCACGCCACCCTAACCACACCCACACGCACGAAACCTAATCGGAGTCACCTAGTGCAG”, the binding signal was 12200 fluorescence intensity (a.u.).

For “TTGTTGTACTTGGCAGACTGTGGACTTTTAGGTCATCTTACGGAGTCACCTAGTGCAG”, the binding signal is 8630 fluorescence intensity (a.u.).

For “GTCTCGCGATTTCCCCTCTAATTGTGCAATTAGTTTTTTACGGAGTCACCTAGTGCAG”, the binding signal is 9920 fluorescence intensity (a.u.).

With “TTCGGGTATCGGGTGGGCGTACCCATGGGTAAAAAGTCACCGGAGTCACCTAGTGCAG”, the binding signal was 10100 fluorescence intensity (a.u.).

Turning to “TGGAATTCGCGTTAACCCTAGCTTTTGTTCTAGAAATTTACGGAGTCACCTAGTGCAG”, the binding signal is 10200 fluorescence intensity (a.u.).

With “ACTCGCGCCGCTCGCCACATCCGACTCCTTCGAATCCTCTCGGAGTCACCTAGTGCAG”, the binding signal was 10400 fluorescence intensity (a.u.).

On to “GAATAGTACTTTACTCGTGACTTATGTTTTTAATTTTTTTCGGAGTCACCTAGTGCAG”, for which the binding signal was 9960 fluorescence intensity (a.u.).

Consider “TATTAATGTCGTTATATTTTACTCATTTTGGTCTGAAATACGGAGTCACCTAGTGCAG”, for which the binding signal was 8060 fluorescence intensity (a.u.).

Consider “TGCTCTTGAAGTCTGTGTTTTTTAGTGTTTCATCCGACTGCGGAGTCACCTAGTGCAG”, for which the binding signal is 8340 fluorescence intensity (a.u.).

On to “CAAAGGTGTTCGACGCGTGCTTCTCGGCGTCCAGCGTCTCCGGAGTCACCTAGTGCAG”, for which the binding signal was 8090 fluorescence intensity (a.u.).

With “GGGGAAGCTTCGTGGCGGGAGGCAGTTGGTGCTGTGGCTCCGGAGTCACCTAGTGCAG”, the binding signal is 8110 fluorescence intensity (a.u.).

Take “TTTAAATGTTTCAGTTGCTATTTTTTTCGTTTCACTATATCGGAGTCACCTAGTGCAG”: the binding signal was 9000 fluorescence intensity (a.u.).

Take “CGTTTCACCGTTCGTCTTATTTAAAATTATTTTATAATTACGGAGTCACCTAGTGCAG”: the binding signal is 8920 fluorescence intensity (a.u.).

For the sequence “TAGCTCTCTCTTGGTGTTCTCTCCTCCATGCAAGCTCTCTCGGAGTCACCTAGTGCAG”, the binding signal is 8240 fluorescence intensity (a.u.).

Consider “TCTCTGCAATATGGGGCATGCGACAATTTACTAACTATATCGGAGTCACCTAGTGCAG”, for which the binding signal is 8430 fluorescence intensity (a.u.).

For the sequence “AGGTAAGGATGCAAGCGGGCTTTTTTTTTCCCGCTTATCCCGGAGTCACCTAGTGCAG”, the binding signal was 10500 fluorescence intensity (a.u.).

On to “CGCGTCGCGCGCCGTTGACGACTTTCCCGCGCCTATAAAACGGAGTCACCTAGTGCAG”, for which the binding signal was 8840 fluorescence intensity (a.u.).

In the case of “CATACCCCAATCGTTCTTACACTGTTTAGTTTTGACTACCCGGAGTCACCTAGTGCAG”, the binding signal was 8740 fluorescence intensity (a.u.).

Regarding “CATCTCCTCCACCTATAAAGCTACCCAGCTGATGCTTCCGCGGAGTCACCTAGTGCAG”, the binding signal was 8130 fluorescence intensity (a.u.).

On to “AGAGAGCACGCGATCGATCGATCCCGCACCCTGTAATCCTCGGAGTCACCTAGTGCAG”, for which the binding signal was 8630 fluorescence intensity (a.u.).

In the case of “ACGCACCAACCGTCCCTCTTTCGCTCACACTCTTCCTTCCCGGAGTCACCTAGTGCAG”, the binding signal is 9700 fluorescence intensity (a.u.).

With “CGTTGAACTCTCACTTACTAATTATATGTAAATACACCATCGGAGTCACCTAGTGCAG”, the binding signal was 9390 fluorescence intensity (a.u.).

For “ATCATTTTATCACTCTTTTTACTACCTCAAATATATCAGTCGGAGTCACCTAGTGCAG”, the binding signal was 8300 fluorescence intensity (a.u.).

As to “TTCCTTTGCCTCGTCATCAAACCGCGCGCGCTCCTCAACTCGGAGTCACCTAGTGCAG”, the binding signal is 8880 fluorescence intensity (a.u.).

Turning to “TTTCTTAAGTTCTTTTCTGTTCACTTCTGAATTTTTTGGCCGGAGTCACCTAGTGCAG”, the binding signal was 8600 fluorescence intensity (a.u.).

“CACAGCGTCCACACCCGCGCCGCCGCCGCCCTCACCCTCGCGGAGTCACCTAGTGCAG”: the binding signal is 8760 fluorescence intensity (a.u.).

As to “CTCACGCCCGCTCCGCCTCAGCCGTCGCTCACGCTCGCTTCGGAGTCACCTAGTGCAG”, the binding signal was 11000 fluorescence intensity (a.u.).

Consider “GTACGAGCGCCTCGAAGCAGCCGGCGCCGTCGGGGAGGGGCGGAGTCACCTAGTGCAG”, for which the binding signal was 8630 fluorescence intensity (a.u.).

As to “TATGTAGCCTTCAACTTTGGTTTCTTTTTTTTGTTGCTCACGGAGTCACCTAGTGCAG”, the binding signal is 12300 fluorescence intensity (a.u.).

As to “TTTCTGAGGGGAGGGAGAGGCTGGGCTGACCGGCTCAAGGCGGAGTCACCTAGTGCAG”, the binding signal is 10600 fluorescence intensity (a.u.).

Turning to “AAACCGGCCACTGCTACCCCTTTTGTTCCTTGCTATCTCCCGGAGTCACCTAGTGCAG”, the binding signal was 10100 fluorescence intensity (a.u.).

On to “CTGTGATCGCTTTGTTGTACTATTTACCGTTTCTGTTTGTCGGAGTCACCTAGTGCAG”, for which the binding signal was 8830 fluorescence intensity (a.u.).

With “TGCTTTCGCCATGACCGTCCTTGGTTGTTGCAGTCACTTGCGGAGTCACCTAGTGCAG”, the binding signal is 10500 fluorescence intensity (a.u.).

Take “GTGCTTGGTAAAGTTTTCCTTTCCACCTTGTAGCTCTGCACGGAGTCACCTAGTGCAG”: the binding signal is 8090 fluorescence intensity (a.u.).

In the case of “ACTTACCCTCCTGTACGAGTTTTGTGAATCTCTGATCATTCGGAGTCACCTAGTGCAG”, the binding signal was 8100 fluorescence intensity (a.u.).
